# Entries after “also recorded” stand apart in the source; their conditions may differ.
# Tested on: mice on 75%-CDE diet (NASH, fibrosis and HCC)
# Assay: Prevention study: CDE diet-induced NASH in mice, proglumide in drinking water from start of diet
# Assay type: in vivo, mouse (female C57BL/6)
# Description: All mouse studies were performed in an ethical fashion and approved by the Institutional Animal Care and Use Committee, protocol #2016-1193 for animal research by Georgetown University. Female C57BL/6 mice (body weight of >20 g) were obtained from Charles River Laboratory (Germantown, MD). Mice were housed with five per cage with filter-top cages and housing light cycled q12 hrs; on-off. […] The first group received a modified Choline Deficient Diet with 75% Ethionine supplemented diet (CDE) as previously described by […] et al. “A modified choline-deficient, ethionine-supplemented diet reduces morbidity and retains a liver progenitor cell response in mice,” Dis Model Mech 8:1635-1641 (2015). […] The control mice received the same diet with choline. Both diets contained casein as the major source of protein and lard (saturated fat) as the primary source of fat. The diet composition is shown in Table 1 and is very similar to the Western diet (Roberts et al. “Western diet-induced hepatic steatosis and alterations in the liver transcriptome in adult Brown-Norway rats,” BMC Gastroenterol. 15:151 (2015)) where the diet consists of a high fat and high sugar and is often used in experimental animal diets to induce NAFLD. The food intake was measured by weighing food consumed to assure mice were eating equal amounts of food in each group, and animals ate ad libitum. […] Of these (N=5 each) mice were ethically euthanized and livers dissected and analyzed histologically to assess for evidence of NASH at weeks 4 and 8. […] Serum was analyzed by VRL Laboratories (Gaithersburg, MD). The following liver tests were evaluated and the normal range for mouse is shown: Alkaline phosphatase (35-275 u/L); Alanine aminotransferase, ALT (17-129 u/L); Aspartate aminotransferase, AST (46-392 u/L); and total bilirubin (0-0.9 mg/dL). […]
smiles,measurement,setting,value
CCCN(CCC)C(=O)C(CCC(=O)O)NC(=O)c1ccccc1 (stereo not drawn) [proglumide],liver weights,"between any of the treatment groups, at termination",no difference
same,food intake,"proglumide-treated vs untreated water, over 12 weeks",slightly more food; also recorded: ate more food
same,final body weight of CDE/Reg mice compared to CDE mice that received proglumide for 18 weeks,week 18,significantly lower

# From patent publication US12251364B2, “Treating non-alcoholic steatohepatitis with cck inhibitors” (priority 2018, dated 2025)
